Binding data for three molecules are collected here from publication PMC9048828.

Results are given in words; binding and its absence hold for the method and conditions named. For some assays here: In cells and extracts the contact can be indirect. Some binding calls cover weakened binding; strength is not graded here. For some assays here: Tags and fused reporters may be left off the sequences shown.

In experiment [1] the target is T1, Strep-RibH (Bacillus subtilis) (UniProt P11998).
T1 sequence: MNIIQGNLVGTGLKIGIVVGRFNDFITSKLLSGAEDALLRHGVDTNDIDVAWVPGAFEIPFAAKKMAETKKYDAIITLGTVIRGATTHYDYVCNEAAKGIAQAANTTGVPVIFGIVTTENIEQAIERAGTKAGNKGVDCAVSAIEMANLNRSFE
Put plainly: pull-down + SEC; coproduced in E. coli BL21 Star, purified by Strep-Tactin affinity chromatography followed by SEC; pooled 60-mer peak (~1 MDa) analysed by SDS-PAGE. (In general: SEC sorts molecules by how far they enter the pores of the column.)

Experiment [2] has as its target T2, Strep-RibH^K29E (Bacillus subtilis) (UniProt P11998).
T2 sequence: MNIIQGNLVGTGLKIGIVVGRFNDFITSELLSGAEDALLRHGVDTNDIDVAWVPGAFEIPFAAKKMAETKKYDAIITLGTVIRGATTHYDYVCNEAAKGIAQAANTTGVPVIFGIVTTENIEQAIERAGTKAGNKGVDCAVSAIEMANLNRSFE
The experiment is described as above.

In experiment [3] the target is T3, Strep-RibH^K29R (Bacillus subtilis) (UniProt P11998).
T3 sequence: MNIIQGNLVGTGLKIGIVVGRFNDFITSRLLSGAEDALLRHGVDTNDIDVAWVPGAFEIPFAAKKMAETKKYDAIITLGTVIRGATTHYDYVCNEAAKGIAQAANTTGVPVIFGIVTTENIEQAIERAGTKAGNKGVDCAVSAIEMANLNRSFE
The description is as above.

Experiment [4] has as its target T4, RibE (Bacillus subtilis) (UniProt P16440).
T4 sequence: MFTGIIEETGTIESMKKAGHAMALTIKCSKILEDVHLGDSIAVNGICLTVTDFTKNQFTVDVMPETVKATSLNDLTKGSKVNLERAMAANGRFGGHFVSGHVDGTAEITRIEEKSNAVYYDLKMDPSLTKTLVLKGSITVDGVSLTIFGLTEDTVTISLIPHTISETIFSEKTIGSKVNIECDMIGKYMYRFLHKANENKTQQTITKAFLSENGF
As to the kind of experiment: two-hybrid; bacterial adenylate cyclase two-hybrid (BACTH) in E. coli BTH101; T18 and T25 fragments fused to the N- or C-terminus, all combinations; lacZ read qualitatively by X-Gal overlay on colonies.

Experiment [5] has as its target T5, RibH (Bacillus subtilis) (UniProt P11998).
T5 sequence: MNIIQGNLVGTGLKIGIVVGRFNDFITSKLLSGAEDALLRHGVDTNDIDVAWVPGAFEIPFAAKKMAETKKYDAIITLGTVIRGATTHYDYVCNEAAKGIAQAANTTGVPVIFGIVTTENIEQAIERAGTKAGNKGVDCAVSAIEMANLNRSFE
The description is as above.

Experiment [6] deals with RibT (Bacillus subtilis) (UniProt P17622). Described as above.

B1: His6-RibE (enzyme, UniProt P16440 1-215)
chain: MFTGIIEETGTIESMKKAGHAMALTIKCSKILEDVHLGDSIAVNGICLTVTDFTKNQFTVDVMPETVKATSLNDLTKGSKVNLERAMAANGRFGGHFVSGHVDGTAEITRIEEKSNAVYYDLKMDPSLTKTLVLKGSITVDGVSLTIFGLTEDTVTISLIPHTISETIFSEKTIGSKVNIECDMIGKYMYRFLHKANENKTQQTITKAFLSENGF
For B1, the binding entry in experiment [1], in experiment [2] and in experiment [3] was “binds” throughout.

B2: RibH (enzyme, UniProt P11998 1-154)
chain: MNIIQGNLVGTGLKIGIVVGRFNDFITSKLLSGAEDALLRHGVDTNDIDVAWVPGAFEIPFAAKKMAETKKYDAIITLGTVIRGATTHYDYVCNEAAKGIAQAANTTGVPVIFGIVTTENIEQAIERAGTKAGNKGVDCAVSAIEMANLNRSFE
On to B2, for which the binding result in experiment [4] and in experiment [5] was “binds” in each case.

B3: RibT (enzyme, UniProt P17622 1-124)
chain: MLIRYKKSFEKIAMGLLSFMPNEKDLKQLQQTIKDYETDTDRQLFLWKEDEDIVGAIGVEKKDSEVEIRHISVNPSHRHQGIGKQMMDALKHLFKTQVLVPNELTQSFFERCQGQQDQDISYNN
B3: the binding result in experiment [4], in experiment [5] and in experiment [6] was “binds” each time.
